Measurements reported in PubChem BioAssay AID1345085 (National Center for Advancing Translational Sciences (NCATS), 2018).
The inconclusive results got no clear call from the source; some entries with a clear call stand among them for comparison. Potencies of inconclusive entries are doubtful fits and often do not repeat. Activity calls are given as the source filed them. Calls come from the whole dose curve; as a rule, active = well fitted cell-killing curve with a large enough effect; inconclusive = small, poorly fitted or top-dose-only effect, or effect the other way; inactive = no such curve, though single readings can be large or run the other way.

Tested on: HeLa
Assay: Confirmatory qHTS for gynecologic anti-cancer compounds from libraries of approved drugs and bioactive compounds; note: nearly all actives have a fitted effect of over 55% in size
Settings: gynecologic cancer cell panel viability, ATPlite luminescence, 48 h; series mostly up to 57.6 µM
Outline: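 ATPlite luminescence read-out of cell viability; IC50 from 11-point 1:3 titrations, 57.5 uM to 0.977 nM, 48 h compound exposure at 37 C, 5% CO2. Cells seeded at 1,000/well 16 h before dosing.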
% is set by controls: 0 for no effect and ±100 for the full control effect; potency is the fitted concentration of half-maximal effect.

| Structure (SMILES) | Potency | activity change, negative = viability loss |
| --- | --- | --- |
| Cc1cc(SCc2sc(-c3ccc(C(F)(F)F)cc3)nc2C)ccc1OCC(=O)O | inactive |  |
| CN(c1nccc(=O)[nH]1)C1CCN(c2nc3ccccc3n2Cc2ccc(F)cc2)CC1 | inactive |  |
| COc1cccc2cc(-c3nc(C4CCC(C(=O)O)CC4)n4ncnc(N)c34)[nH]c12 (centres undefined) | active: 4.85 µM |  |
| CC[C@H](Nc1ncnc2nc[nH]c12)c1nc2cccc(F)c2c(=O)n1-c1ccccc1 |  | inactive: 0.732% [at 10.7 µM] |
| Cc1nc(NC(=O)N2CCCC2C(N)=O)sc1-c1csc(C(C)(C)C)n1 (centres undefined) | inconclusive: 0.863 µM [cytotoxic, full curve] |  |
| OCc1ccc(-c2ccc(-c3ccc(CO)s3)o2)s1 | inactive |  |
| Nc1ccn([C@@H]2O[C@H](CO)[C@@H](O)C2(F)F)c(=O)n1 | inconclusive: 0.0769 µM [cytotoxic, full curve] |  |
| CN1CCCC(n2nc(Cc3ccc(Cl)cc3)c3ccccc3c2=O)CC1 (centres undefined) | inactive |  |
| CN[C@@H](C)C(=O)N[C@H]1CN(C(=O)CC(C)C)CC[C@H]2CC[C@@H](C(=O)NC(c3ccccc3)c3ccccc3)N2C1=O | inactive |  |
| Cc1ccccc1C(OCCN(C)C)c1ccccc1 (centres undefined) | inconclusive: 0.0769 µM [cytotoxic, full curve, poor fit] |  |
| O=C1NC(=O)C(c2cnc3ccccn23)=C1c1cn2c3c(cccc13)CN(C(=O)N1CCOCC1)CC2 | inconclusive: 0.432 µM [cytotoxic, full curve] |  |
| Cc1ccc(NC(=O)c2ccc(CN3CCN(C)CC3)cc2)cc1Nc1nccc(-c2cccnc2)n1 | inconclusive: 13.7 µM [cytotoxic, partial curve] |  |
| C[C@]12CCC(=O)C=C1CC[C@@H]1[C@@H]2[C@@H](O)C[C@@]2(C)[C@H]1CC[C@]2(O)C(=O)CO | inactive |  |
| FC(F)(F)c1ccc(/C=C/c2nc(COc3ccc(CCCCn4ccnn4)cc3)co2)cc1 | inconclusive: 0.0243 µM [cytotoxic, full curve] |  |
| O=c1c2ccccc2nc2n1CCc1c-2[nH]c2ccccc12 | inconclusive: 12.2 µM [cytotoxic, partial curve] |  |
| Cc1nc(N)nc(N)c1-c1ccc(Cl)c(Cl)c1 | active: 3.06 µM |  |
| COc1c(C)c2c(c(O)c1C/C=C(\C)CCC(=O)O)C(=O)OC2 | inconclusive: 7.69 µM [cytotoxic, full curve, poor fit] |  |

| Structure (SMILES) | Potency | activity change, negative = viability loss |
| --- | --- | --- |
| O=C(Nc1cn[nH]c1-c1nc2ccc(CN3CCOCC3)cc2[nH]1)NC1CC1 | active: 0.0432 µM |  |
| Nc1ncnc2c1ncn2[C@@H]1O[C@H](CO)C[C@H]1O | inactive |  |
| Cn1cc(-c2ccc3ncc(Cc4ccc5ncccc5c4)n3n2)cn1 | inactive |  |
| CCCCN(CCCC)CC(O)c1cc(Cl)cc2c1-c1ccc(Cl)cc1/C2=C/c1ccc(Cl)cc1 (centres undefined) | inactive |  |
| CN(C)c1ccc2nc3ccc(=[N+](C)C)cc-3sc2c1 | inconclusive: 8.63 µM [cytotoxic, full curve, poor fit] |  |
| Nc1nc(Cl)nc2c1ncn2C1OC(CO)C(O)C1F (centres undefined) | inactive |  |
| O=C1Cc2cc(CCN3CCN(c4nsc5ccccc45)CC3)c(Cl)cc2N1 | inactive |  |
| Cn1cnc([N+](=O)[O-])c1Sc1ncnc2nc[nH]c12 | active: 4.85 µM |  |
| CNCc1ccc(-c2[nH]c3cc(F)cc4c3c2CCNC4=O)cc1 | inactive |  |
| COc1ccccc1N1CCN(CC(O)COc2cccc3ccccc23)CC1 (centres undefined) | inconclusive: 38.5 µM [cytotoxic, single point] |  |
| CCCCc1nc2cc(/C=C/C(=O)NO)ccc2n1CCN(CC)CC | active: 1.72 µM |  |
| CCCc1nn(C)c2c(=O)[nH]c(-c3cc(S(=O)(=O)N4CCN(C)CC4)ccc3OCC)nc12 | inactive |  |
| COC(C)(C)CCn1nc(Nc2c(C)cccc2C)c2cnc(Nc3ccc(OCCN4CCCC4)c(F)c3)nc21 | inconclusive: 2.43 µM [rising, partial curve] |  |
| COc1cc2ncnc(Nc3ccc(F)c(Cl)c3)c2cc1OCCCN1CCOCC1 | inconclusive: 38.5 µM [cytotoxic, single point] |  |
| O=C1N(c2ccccc2)c2ccccc2C1(Cc1ccncc1)Cc1ccncc1 | inactive |  |
| O=C(CCCCCCC(=O)Nc1ccccc1)NO | active: 3.43 µM |  |
| CCN(CC)CCCC(C)Nc1c2ccc(Cl)cc2nc2ccc(OC)cc12 (centres undefined) | inconclusive: 43.2 µM [cytotoxic, single point] |  |

Pulled by compound from above (2):

| Structure (SMILES) | Potency | activity change, negative = viability loss |
| --- | --- | --- |
| CNCc1ccc(-c2[nH]c3cc(F)cc4c3c2CCNC4=O)cc1 | inactive |  |
| CCN(CC)CCCC(C)Nc1c2ccc(Cl)cc2nc2ccc(OC)cc12 (centres undefined) | inconclusive: 43.2 µM [cytotoxic, single point] |  |
